Experimental findings from US20170292959A1, “PLASMIDS COMPRISING INTERNAL RIBOSOMAL ENTRY SITES AND USES THEREOF” (Dana-Farber Cancer Institute, Inc., priority 2014, published 2017) are described below.

Sequences of proteins named here, by UniProt entry; tags and fusion partners are left off. A change or cut given only in a name is not applied to a line headed by its entry. A line that says so, or that is headed by a name, gives the form on record, which may keep a tag or linker.
cereblon (CRBN), wild-type (Q96SW2, form named): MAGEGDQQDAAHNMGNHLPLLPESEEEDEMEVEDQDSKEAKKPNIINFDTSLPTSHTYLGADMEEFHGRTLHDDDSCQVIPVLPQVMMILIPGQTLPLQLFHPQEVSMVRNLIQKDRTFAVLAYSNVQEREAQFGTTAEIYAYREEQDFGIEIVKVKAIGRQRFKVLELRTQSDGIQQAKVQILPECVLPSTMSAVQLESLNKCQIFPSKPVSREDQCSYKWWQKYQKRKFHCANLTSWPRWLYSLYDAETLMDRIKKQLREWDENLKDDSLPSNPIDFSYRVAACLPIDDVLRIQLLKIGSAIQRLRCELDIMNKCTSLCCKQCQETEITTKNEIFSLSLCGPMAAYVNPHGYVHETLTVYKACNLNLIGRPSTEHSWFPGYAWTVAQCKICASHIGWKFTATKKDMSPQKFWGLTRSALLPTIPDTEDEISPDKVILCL
UniProt Q9UKT9: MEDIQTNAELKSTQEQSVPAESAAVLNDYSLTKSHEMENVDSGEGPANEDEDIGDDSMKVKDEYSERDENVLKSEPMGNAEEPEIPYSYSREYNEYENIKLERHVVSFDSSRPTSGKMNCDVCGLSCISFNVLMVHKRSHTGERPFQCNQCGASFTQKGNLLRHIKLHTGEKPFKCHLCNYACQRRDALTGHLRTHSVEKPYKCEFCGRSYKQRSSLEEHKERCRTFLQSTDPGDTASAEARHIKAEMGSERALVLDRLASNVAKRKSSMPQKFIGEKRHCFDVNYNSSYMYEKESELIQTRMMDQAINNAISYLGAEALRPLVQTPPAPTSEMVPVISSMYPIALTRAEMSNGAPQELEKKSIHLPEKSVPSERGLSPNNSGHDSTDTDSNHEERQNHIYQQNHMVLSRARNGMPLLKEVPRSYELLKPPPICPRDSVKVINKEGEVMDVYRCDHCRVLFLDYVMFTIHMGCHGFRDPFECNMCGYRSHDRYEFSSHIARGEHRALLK

Test [1] deals with cereblon (CRBN), wild-type (human) (UniProt Q96SW2). Briefly: cotransfection in MG132-treated 293FT cells, with lenalidomide.
A further test has as its target endogenous IKZF3 (UniProt Q9UKT9). Description: FLAG-tagged CRBN on anti-FLAG beads mixed with MM1S CRBN-/- cell extracts; lenalidomide 10 µM added after lysis; immunoblot.

No constants are given. Whether binding was seen depends on the method and setting. Some entries that bind do so weakly or less than the wild type.

Regarding “IKZF3 (exogenous) (from UniProt Q9UKT9 1-509)”, the binding entry in test [1] is reported as “binds”.

Turning to “cereblon (CRBN), wild-type (from UniProt Q96SW2 1-441)”, the binding result in the test with endogenous IKZF3 is “binds”.
